Assay results published in patent US9944986B2, “Therapeutic targets for Alzheimer's disease” (The University of Birmingham, priority 2012, dated 2018).
At least one compound was matched to its structure with a doubt left.

Experiments:
[1] = tested on: SH-SY5Y neuroblastoma cells; assay: Cell cycle kinetics in SH-SY5Y cells (propidium iodide cytometry); assay type: cell-based, human; settings: rapamycin 100 ng/ml or siRNA 1 nM 48 hours alone, normalised to Control (100%)
[2] = tested on: phospho-Tau in SH-SY5Y neuroblastoma cells; assay: p-tau expression in SH-SY5Y cells (immunostaining cytometry); assay type: cell-based, human
brain [3] = assay: T2 weighted MRI of brain after mTOR inhibition/activation; assay type: in vivo; settings: SD rats; rapamycin 0.2 mg/kg i.p., ketamine 30 mg/kg i.p.; n=3
Description: (§1) There were three animals (n=3) in each group. Animals were sacrificed and the brain removed and frozen for imaging studies.

brain [4] = assay: MSI imaging of brain sections (phosphatidylcholines, choline, creatine); assay type: in vivo; settings: SD rats, rapamycin 0.2 mg/kg i.p., ketamine 30 mg/kg i.p.
Experimental: as §1
All MSI imaging experiments were performed on a Bruker ultrafleXtreme TOF/TOF mass spectrometer. For matrix evaluation, 4 serial sections of thickness 10 μm from sham control brain S2 were acquired using a Leica CM 1850 Cryostat and subsequently thaw mounted onto an ITO coated glass slide. Each section in turn was coated with 15 mL of 20 mg mL^−1 of CHCA in CH3OH, 0.1% TFA) using an artist airbrush while the remaining 2 sections were covered. Data were collected over the mass range m/z 60-1400. MSI experiments of a single section from each group (Rapa, Ket and Control) were conducted. […]. Images were acquired with a pixel size of 100 μm×100 μm.

With `CO[C@H]1C[C@@H]2CC[C@@H](C)[C@@](O)(O2)C(=O)C(=O)N2CCCC[C@H]2C(=O)O[C@H]([C@H](C)C[C@@H]2CC[C@@H](O)[C@H](OC)C2)CC(=O)[C@H](C)/C=C(\C)[C@@H](O)[C@@H](OC)C(=O)[C@H](C)C[C@H](C)/C=C/C=C/C=C/1C` [rapamycin] the “effect on cell cycle kinetics (G1 and G2 populations)” value [1] was “the G1 phase became longer and the G2 phase was shortened”, the “cell cycle independent effect on p-tau” value ([2]; 100 ng/ml rapamycin, G1 and G2 populations) was “cell cycle independent effect on p-tau leading to further reductions in this protein” and the “effect on p-tau expression/content” value ([2]; rapamycin 100 ng/ml or siRNA 1 nM alone, normalised to Control (100%)) was “reduction of p-tau content in the whole cell culture”. For the same compound, the “T2 weighted MRI images versus control animals” value (brain [3]) was “clear differences in the T2 weighted MRI images”, the “phosphatidylcholine species in the brain (ion images) relative to control” value (brain [4]) was “clear differences induced by mTOR inhibition or activation” and the “choline levels in the brain” value (brain [4]; vs control) was “measureable changes”. The “creatine levels in the brain” value (brain [4]; vs control) was “measureable changes”.
